Results from PMC11412891.
Results are given in words; binding and its absence hold for the method and conditions named. Binding seen in cells or lysates may run through a third protein. Some results given as binding are weak or reduced against the parent protein; the word gives no strength. Tags and fused reporters may be left off the sequences shown.

Molecular target: T1, CD2 Binding Protein 2 (CD2BP2/U5-52K), FLAG-tagged (human) (UniProt O95400)
T1 sequence: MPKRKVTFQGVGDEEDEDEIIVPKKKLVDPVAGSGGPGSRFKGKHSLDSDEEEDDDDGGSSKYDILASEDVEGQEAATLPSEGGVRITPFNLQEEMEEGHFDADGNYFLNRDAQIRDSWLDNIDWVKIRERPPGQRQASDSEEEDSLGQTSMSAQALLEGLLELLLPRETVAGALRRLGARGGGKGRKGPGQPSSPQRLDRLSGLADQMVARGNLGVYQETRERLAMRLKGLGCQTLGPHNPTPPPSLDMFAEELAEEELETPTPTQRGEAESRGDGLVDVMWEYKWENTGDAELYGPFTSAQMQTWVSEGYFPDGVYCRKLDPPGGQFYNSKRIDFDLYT
Experiment: cross-linking; anti-FLAG IP of CD2BP2-FLAG from HEK293T CD2BP2-/- lysate (~100 mg protein), on-bead crosslinking with DSSO, tryptic digest, LC-MS2-MS3, XlinkX, 1 % FDR; two technical and two biological replicates

B1: Prp6 (protein, UniProt O94906 1-941)
chain: MNKKKKPFLGMPAPLGYVPGLGRGATGFTTRSDIGPARDANDPVDDRHAPPGKRTVGDQMKKNQAADDDDEDLNDTNYDEFNGYAGSLFSSGPYEKDDEEADAIYAALDKRMDERRKERREQREKEEIEKYRMERPKIQQQFSDLKRKLAEVTEEEWLSIPEVGDARNKRQRNPRYEKLTPVPDSFFAKHLQTGENHTSVDPRQTQFGGLNTPYPGGLNTPYPGGMTPGLMTPGTGELDMRKIGQARNTLMDMRLSQVSDSVSGQTVVDPKGYLTDLNSMIPTHGGDINDIKKARLLLKSVRETNPHHPPAWIASARLEEVTGKLQVARNLIMKGTEMCPKSEDVWLEAARLQPGDTAKAVVAQAVRHLPQSVRIYIRAAELETDIRAKKRVLRKALEHVPNSVRLWKAAVELEEPEDARIMLSRAVECCPTSVELWLALARLETYENARKVLNKARENIPTDRHIWITAAKLEEANGNTQMVEKIIDRAITSLRANGVEINREQWIQDAEECDRAGSVATCQAVMRAVIGIGIEEEDRKHTWMEDADSCVAHNALECARAIYAYALQVFPSKKSVWLRAAYFEKNHGTRESLEALLQRAVAHCPKAEVLWLMGAKSKWLAGDVPAARSILALAFQANPNSEEIWLAAVKLESENDEYERARRLLAKARSSAPTARVFMKSVKLEWVQDNIRAAQDLCEEALRHYEDFPKLWMMKGQIEEQKEMMEKAREAYNQGLKKCPHSTPLWLLLSRLEEKIGQLTRARAILEKSRLKNPKNPGLWLESVRLEYRAGLKNIANTLMAKALQECPNSGILWSEAIFLEARPQRRTKSVDALKKCEHDPHVLLAVAKLFWSQRKITKAREWFHRTVKIDSDLGDAWAFFYKFELQHGTEEQQEEVRKRCESAEPRHGELWCAVSKDIANWQKKIGDILRLVAGRIKNTF
In the case of B1, the binding is reported as “binds”.
